In patent US20210128520A1, “NEUROPROTECTIVE ISOFLAVONE COMPOSITIONS AND METHODS” (UNM Rainforest Innovations, priority 2017, published 2021):
For some of these results: At least one structure is not confirmed: it was looked up by name or label, or the drawing left a doubt. Some entries share one result that the patent states for a list of compounds.

Legend:
[1] = system: primary cultured cortical neurons; experiment: L-glutamate-induced cell death (excitotoxicity) in primary cultured cortical neurons, LDH release assay; assay type: cell-based, rat; settings: 2.5 μM of each isoflavone, pre-treatment, 8 mM L-glutamate 6 h
[2] = system: rat MCAO ischemia-reperfusion model; experiment: MCAO cerebral ischemia-reperfusion model, infarct volume (TTC) and neurology score; assay type: in vivo
Source text: Male adult Sprague-Daweley rats (250 g to 270 g) were obtained from Laboratorial Animal Unit, the University of Hong Kong (HKU) and University of New Mexico (UNM). All animal experiments were approved and regulated by the Committee on the Use of Live Animals in Teaching and Research, HKU and the Laboratory Animal Care and Use Committee, UNM. All efforts were made to minimize animal suffering and to reduce the number of animals used.
Rats were subjected to MCAO to induce cerebral ischemia-reperfusion as previously described (Shen et al., 2006. J Neurochem 96(4):1078-1089). Briefly, rats were anaesthetized by inhalation of 5% isoflurane and maintained with 2% isoflurane in a mixture of 70% N2O and 30% 02. After vessels isolation, a 3/0 monofilament nylon suture (Johnson & Johnson Health Care Systems, Inc., Piscataway, N.J.) was inserted into the external carotid artery and advanced into the internal carotid artery and anterior cerebral artery to occlude the middle cerebral artery. After occlusion for 1.5 hours, the suture was removed to induce reperfusion and maintained for 22.5 hours. After operation, rats were transferred to intensive care incubator in which the temperature was kept at 37° C. until animals woke up completely. […]
After 24 hours of reperfusion, rat brains were isolated and sliced into coronal sections followed by staining with 2,3,5-triphenyltetrazolium chloride (TTC, Sigma-Aldrich, St. Louis, Mo.) at 37° C. for 20 minutes. The ischemic area was evaluated by calculating the hemispheric lesion area with ImageJ software (ImageJ-1.38x; Schneider et al., 2012. Nature methods 9(7):671-675), the relative infarct volume percentage (RIVP) was calculated as RIVP=IVA/TA×100%, IVA was the total infract area of five coronal sections, TA was the total area of five sections.
Neurological function was determined by 9-scale methods containing dysfunctional paw test, postural reflex test and circling test according to a previous report (Bederson et al., 1986. Stroke 17(3):472-476). […]

[3] = system: phosphorylation of Akt at Ser473; experiment: Western blot of pAkt (Ser473) in primary cultured neurons under L-glutamate or OGD/RO challenge; assay type: cell-based, rat; settings: LY-294002 10 μM pretreatment 15 min before isoflavones; L-glutamate model

SMILES | reduction in the rate of cell death as compared to vehicle control, L-glutamate [1] [%] | infarct volume in comparison with vehicle group ([2]; 20 μmol/kg i.p., single isoflavone, 1.5 h MCAO + 22.5 h reperfusion) | neurological function (neurological deficit score) versus vehicle group ([2]; 60 μmol/kg i.p.) | effect of ICI 182780 co-treatment on neuroprotective effect on infarct volume ([2]; ICI 182780 i.c.v. 1 h before ischemia, isoflavone i.p. 30 min before ischemia) | expression of pAkt [3]
COc1ccc(-c2coc3cc(O)ccc3c2=O)cc1O [C, calycosin] | < 2 | – | – | – | –
O=c1c(-c2ccc(O)cc2)coc2cc(O)ccc12 [D, daidzein] | < 2 | – | – | – | –
COc1ccc(-c2coc3cc(O)ccc3c2=O)cc1 [F, formononetin] | < 2 | no statistical difference | much improved neurological function | partially blocked | –
O=c1cc(N2CCOCC2)oc2c(-c3ccccc3)cccc12 [LY-294002] | – | – | – | – | significantly down-regulated
